Data on five sequences can be found in paper PMC9205888, “Efficient discrimination against RNA-containing primers by human DNA polymerase ε”.

This data set concerns the target T1, hPolεCD (DNA polymerase ε catalytic domain, exo-) D275N,E277Q,del185-209 (Homo sapiens) (UniProt Q07864).
T1 sequence (looked up): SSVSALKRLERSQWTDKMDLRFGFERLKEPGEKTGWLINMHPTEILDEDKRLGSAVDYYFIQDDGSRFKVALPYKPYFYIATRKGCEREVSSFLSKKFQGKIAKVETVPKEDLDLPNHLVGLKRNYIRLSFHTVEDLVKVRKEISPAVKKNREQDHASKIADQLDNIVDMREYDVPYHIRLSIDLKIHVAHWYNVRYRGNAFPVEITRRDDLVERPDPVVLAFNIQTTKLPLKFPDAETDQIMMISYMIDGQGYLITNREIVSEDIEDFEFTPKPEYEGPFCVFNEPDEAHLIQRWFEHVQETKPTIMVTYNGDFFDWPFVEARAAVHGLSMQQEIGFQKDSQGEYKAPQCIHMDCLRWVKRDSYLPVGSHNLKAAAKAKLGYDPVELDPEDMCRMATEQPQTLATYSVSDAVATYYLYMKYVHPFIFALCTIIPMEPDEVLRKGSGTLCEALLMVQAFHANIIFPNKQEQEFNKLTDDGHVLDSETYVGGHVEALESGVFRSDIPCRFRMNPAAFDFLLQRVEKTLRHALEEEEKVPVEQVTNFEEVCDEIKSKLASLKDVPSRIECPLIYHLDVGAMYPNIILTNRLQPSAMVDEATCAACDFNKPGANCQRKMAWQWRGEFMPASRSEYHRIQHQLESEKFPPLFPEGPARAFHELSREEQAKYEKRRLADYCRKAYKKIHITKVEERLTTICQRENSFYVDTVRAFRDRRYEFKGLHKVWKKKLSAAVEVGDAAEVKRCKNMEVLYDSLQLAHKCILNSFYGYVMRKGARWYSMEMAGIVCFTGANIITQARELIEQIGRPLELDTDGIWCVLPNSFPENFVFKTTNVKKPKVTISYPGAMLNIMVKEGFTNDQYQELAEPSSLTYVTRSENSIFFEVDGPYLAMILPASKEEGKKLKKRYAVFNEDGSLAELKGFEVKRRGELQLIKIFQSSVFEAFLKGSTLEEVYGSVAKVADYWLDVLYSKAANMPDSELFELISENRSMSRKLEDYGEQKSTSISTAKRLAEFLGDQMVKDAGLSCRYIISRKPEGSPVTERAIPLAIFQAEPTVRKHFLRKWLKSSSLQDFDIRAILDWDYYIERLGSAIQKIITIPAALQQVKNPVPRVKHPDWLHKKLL
The experiment in a line: BLI. The settings on record: BLI (Octet K2): 30 mM Tris-Hepes pH 7.8, 100-150 mM NaCl, 2 mM TCEP, 0.002% Tween 20, 23 °C, recombinant protein, residues 27-1172, label: 5' BiotinTEG on template; for Kd: 50 µM dTTP, 5 mM Mg2+. Background: BLI is a label-free optical method that tracks binding on a fibre tip over time.

For at least one entry, the source does not settle the construct or the ends of the probe. Protein sequences can lack the tags named with them. Whether high values mean tight binding is not given here for every scale.

As usually defined, the Kd is the free concentration of one partner at which half of the binding sites on the other are occupied at equilibrium, for simple one-to-one binding. “AATACATAAGCGCTCCAGGCAAT / GCCUGGAGCGC [R6-D5 template:primer]”: the Kd (100 mM NaCl, primer nt 1-6 RNA, nt 7-11 DNA, 3' ddC) was 218 nM.

In the case of “AATACATAAGCGCTCCAGGCAAT / GCCUGGAGCGC [R10-D1 template:primer]”, the binding signal (fold KD increase vs no additive) by setting is: (50 µM dTTP only, primer nt 1-10 RNA, nt 11 2',3'-dideoxy-C) 1.8; (5 mM Mg2+ only, primer nt 1-10 RNA, nt 11 2',3'-dideoxy-C) 7.5. In addition, the Kd (100 mM NaCl, primer nt 1-10 RNA, nt 11 2',3'-dideoxy-C) came out at 424 nM.

As for “AATACATAAGCGCTCCAGGCAAT / GCCUGGAGCGC [R8-D3 template:primer]”, the Kd (100 mM NaCl, primer nt 1-8 RNA, nt 9-11 DNA, 3' ddC) is 439 nM.

As for “AATACATAAGCGCTCCAGGCAAT / GCCTGGAGCGC [D11 template:primer]”, the Kd (150 mM NaCl, primer 3'-terminal 2',3'-dideoxy-C) turned out to be 3790 nM.

Take “AATACATAAGCGCTCCAGGCAAT / GCCTGGAGCGC [D10-R1 template:primer]”: the Kd (100 mM NaCl, primer nt 1-10 DNA, nt 11 3'-deoxy-C (2'-OH)) came to 225 nM.
